In the supplement of paper PMC10849652:
Some of the results follow.

Chains of the proteins cited; added tags and fusions are not shown. Lines headed by an entry give the natural chain unless they say otherwise; changes in a name come on top.
UniProt P61201: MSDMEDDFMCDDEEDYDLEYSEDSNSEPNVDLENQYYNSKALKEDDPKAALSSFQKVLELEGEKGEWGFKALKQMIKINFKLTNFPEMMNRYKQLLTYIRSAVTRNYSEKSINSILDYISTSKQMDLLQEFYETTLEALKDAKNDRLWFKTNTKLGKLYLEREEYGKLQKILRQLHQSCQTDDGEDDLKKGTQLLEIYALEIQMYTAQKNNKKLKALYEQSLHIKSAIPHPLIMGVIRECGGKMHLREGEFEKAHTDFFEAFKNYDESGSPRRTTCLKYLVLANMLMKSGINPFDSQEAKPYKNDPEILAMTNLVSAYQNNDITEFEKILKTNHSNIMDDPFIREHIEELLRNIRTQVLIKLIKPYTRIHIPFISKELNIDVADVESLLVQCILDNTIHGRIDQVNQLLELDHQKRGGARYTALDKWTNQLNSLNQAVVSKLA
UniProt Q8N752: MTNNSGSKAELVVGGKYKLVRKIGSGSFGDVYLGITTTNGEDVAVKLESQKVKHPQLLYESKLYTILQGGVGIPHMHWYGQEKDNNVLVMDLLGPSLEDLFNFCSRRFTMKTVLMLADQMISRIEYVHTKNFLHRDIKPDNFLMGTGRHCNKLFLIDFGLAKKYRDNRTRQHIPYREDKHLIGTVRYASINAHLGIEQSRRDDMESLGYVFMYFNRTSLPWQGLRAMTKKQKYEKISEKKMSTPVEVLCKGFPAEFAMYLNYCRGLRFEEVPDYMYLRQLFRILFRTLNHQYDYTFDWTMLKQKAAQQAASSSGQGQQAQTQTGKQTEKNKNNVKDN
UniProt Q9UBW8: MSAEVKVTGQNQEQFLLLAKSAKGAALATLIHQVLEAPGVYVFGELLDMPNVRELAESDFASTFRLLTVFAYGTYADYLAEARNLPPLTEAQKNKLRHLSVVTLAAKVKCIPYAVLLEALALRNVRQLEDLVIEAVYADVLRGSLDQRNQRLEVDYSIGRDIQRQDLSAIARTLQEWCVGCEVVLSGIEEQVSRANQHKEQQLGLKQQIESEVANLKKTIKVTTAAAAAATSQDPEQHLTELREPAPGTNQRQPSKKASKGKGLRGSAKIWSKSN
UniProt Q86VX2, whole entry, looked up: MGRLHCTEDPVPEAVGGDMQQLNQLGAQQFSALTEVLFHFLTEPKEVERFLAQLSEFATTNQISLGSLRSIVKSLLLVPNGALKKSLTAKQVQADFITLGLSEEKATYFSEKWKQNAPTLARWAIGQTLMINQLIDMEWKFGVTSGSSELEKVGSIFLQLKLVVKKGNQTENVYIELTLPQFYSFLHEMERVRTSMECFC
UniProt O75534: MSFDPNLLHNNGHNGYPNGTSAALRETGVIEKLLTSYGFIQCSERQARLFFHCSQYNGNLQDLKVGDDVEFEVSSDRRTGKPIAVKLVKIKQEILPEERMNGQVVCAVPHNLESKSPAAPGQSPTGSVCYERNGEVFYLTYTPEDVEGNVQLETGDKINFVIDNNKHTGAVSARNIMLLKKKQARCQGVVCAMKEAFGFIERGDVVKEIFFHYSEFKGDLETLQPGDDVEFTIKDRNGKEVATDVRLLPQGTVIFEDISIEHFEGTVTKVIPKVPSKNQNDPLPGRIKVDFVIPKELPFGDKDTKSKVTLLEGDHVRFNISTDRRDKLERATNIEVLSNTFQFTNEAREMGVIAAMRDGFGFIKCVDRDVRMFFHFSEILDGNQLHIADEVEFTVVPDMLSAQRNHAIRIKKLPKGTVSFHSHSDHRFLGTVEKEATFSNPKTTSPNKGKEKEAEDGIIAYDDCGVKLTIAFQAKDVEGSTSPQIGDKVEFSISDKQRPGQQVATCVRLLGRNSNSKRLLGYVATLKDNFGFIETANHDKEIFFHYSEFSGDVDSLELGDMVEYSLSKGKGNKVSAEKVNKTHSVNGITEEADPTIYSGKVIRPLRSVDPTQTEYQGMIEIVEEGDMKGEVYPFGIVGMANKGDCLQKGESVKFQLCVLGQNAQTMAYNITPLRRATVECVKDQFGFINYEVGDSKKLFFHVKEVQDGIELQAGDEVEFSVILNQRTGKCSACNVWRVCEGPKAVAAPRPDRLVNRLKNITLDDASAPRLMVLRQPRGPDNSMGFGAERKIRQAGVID
UniProt Q9HCP0: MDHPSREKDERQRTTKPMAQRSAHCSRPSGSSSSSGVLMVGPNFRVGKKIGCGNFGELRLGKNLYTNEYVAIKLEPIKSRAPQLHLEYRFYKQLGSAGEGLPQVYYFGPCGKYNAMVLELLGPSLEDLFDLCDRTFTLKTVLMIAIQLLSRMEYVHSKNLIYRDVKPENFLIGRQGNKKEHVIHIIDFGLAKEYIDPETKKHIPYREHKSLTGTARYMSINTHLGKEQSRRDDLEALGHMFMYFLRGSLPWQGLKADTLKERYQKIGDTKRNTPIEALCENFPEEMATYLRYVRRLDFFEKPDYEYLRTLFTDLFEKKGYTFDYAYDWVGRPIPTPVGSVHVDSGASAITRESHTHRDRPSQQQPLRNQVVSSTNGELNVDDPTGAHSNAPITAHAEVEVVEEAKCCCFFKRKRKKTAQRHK
UniProt Q9NZJ6: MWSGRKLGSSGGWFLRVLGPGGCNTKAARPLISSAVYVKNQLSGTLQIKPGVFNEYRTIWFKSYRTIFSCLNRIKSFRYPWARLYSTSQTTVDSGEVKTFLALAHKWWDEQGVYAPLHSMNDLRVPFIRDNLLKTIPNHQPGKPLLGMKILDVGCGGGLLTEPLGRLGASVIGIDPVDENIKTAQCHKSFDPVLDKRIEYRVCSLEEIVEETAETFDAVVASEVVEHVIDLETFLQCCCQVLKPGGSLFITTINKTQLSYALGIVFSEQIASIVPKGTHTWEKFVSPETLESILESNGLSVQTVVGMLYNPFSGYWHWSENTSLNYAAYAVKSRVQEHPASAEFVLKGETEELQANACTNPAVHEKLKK
UniProt Q99829: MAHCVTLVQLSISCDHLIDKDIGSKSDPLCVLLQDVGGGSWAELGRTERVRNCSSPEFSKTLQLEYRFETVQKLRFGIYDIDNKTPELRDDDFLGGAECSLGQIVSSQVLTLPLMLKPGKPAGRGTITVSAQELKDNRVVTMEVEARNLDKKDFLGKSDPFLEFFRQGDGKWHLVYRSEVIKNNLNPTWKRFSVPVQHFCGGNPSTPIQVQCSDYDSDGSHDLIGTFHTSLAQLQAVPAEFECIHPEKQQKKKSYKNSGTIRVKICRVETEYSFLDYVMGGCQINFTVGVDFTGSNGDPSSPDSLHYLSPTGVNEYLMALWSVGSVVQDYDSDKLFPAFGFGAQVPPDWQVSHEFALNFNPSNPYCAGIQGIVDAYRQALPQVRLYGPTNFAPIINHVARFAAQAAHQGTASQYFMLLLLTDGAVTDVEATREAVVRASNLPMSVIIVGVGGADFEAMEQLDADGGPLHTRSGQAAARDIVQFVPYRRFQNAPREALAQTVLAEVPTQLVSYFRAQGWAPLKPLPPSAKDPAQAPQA
UniProt P12111: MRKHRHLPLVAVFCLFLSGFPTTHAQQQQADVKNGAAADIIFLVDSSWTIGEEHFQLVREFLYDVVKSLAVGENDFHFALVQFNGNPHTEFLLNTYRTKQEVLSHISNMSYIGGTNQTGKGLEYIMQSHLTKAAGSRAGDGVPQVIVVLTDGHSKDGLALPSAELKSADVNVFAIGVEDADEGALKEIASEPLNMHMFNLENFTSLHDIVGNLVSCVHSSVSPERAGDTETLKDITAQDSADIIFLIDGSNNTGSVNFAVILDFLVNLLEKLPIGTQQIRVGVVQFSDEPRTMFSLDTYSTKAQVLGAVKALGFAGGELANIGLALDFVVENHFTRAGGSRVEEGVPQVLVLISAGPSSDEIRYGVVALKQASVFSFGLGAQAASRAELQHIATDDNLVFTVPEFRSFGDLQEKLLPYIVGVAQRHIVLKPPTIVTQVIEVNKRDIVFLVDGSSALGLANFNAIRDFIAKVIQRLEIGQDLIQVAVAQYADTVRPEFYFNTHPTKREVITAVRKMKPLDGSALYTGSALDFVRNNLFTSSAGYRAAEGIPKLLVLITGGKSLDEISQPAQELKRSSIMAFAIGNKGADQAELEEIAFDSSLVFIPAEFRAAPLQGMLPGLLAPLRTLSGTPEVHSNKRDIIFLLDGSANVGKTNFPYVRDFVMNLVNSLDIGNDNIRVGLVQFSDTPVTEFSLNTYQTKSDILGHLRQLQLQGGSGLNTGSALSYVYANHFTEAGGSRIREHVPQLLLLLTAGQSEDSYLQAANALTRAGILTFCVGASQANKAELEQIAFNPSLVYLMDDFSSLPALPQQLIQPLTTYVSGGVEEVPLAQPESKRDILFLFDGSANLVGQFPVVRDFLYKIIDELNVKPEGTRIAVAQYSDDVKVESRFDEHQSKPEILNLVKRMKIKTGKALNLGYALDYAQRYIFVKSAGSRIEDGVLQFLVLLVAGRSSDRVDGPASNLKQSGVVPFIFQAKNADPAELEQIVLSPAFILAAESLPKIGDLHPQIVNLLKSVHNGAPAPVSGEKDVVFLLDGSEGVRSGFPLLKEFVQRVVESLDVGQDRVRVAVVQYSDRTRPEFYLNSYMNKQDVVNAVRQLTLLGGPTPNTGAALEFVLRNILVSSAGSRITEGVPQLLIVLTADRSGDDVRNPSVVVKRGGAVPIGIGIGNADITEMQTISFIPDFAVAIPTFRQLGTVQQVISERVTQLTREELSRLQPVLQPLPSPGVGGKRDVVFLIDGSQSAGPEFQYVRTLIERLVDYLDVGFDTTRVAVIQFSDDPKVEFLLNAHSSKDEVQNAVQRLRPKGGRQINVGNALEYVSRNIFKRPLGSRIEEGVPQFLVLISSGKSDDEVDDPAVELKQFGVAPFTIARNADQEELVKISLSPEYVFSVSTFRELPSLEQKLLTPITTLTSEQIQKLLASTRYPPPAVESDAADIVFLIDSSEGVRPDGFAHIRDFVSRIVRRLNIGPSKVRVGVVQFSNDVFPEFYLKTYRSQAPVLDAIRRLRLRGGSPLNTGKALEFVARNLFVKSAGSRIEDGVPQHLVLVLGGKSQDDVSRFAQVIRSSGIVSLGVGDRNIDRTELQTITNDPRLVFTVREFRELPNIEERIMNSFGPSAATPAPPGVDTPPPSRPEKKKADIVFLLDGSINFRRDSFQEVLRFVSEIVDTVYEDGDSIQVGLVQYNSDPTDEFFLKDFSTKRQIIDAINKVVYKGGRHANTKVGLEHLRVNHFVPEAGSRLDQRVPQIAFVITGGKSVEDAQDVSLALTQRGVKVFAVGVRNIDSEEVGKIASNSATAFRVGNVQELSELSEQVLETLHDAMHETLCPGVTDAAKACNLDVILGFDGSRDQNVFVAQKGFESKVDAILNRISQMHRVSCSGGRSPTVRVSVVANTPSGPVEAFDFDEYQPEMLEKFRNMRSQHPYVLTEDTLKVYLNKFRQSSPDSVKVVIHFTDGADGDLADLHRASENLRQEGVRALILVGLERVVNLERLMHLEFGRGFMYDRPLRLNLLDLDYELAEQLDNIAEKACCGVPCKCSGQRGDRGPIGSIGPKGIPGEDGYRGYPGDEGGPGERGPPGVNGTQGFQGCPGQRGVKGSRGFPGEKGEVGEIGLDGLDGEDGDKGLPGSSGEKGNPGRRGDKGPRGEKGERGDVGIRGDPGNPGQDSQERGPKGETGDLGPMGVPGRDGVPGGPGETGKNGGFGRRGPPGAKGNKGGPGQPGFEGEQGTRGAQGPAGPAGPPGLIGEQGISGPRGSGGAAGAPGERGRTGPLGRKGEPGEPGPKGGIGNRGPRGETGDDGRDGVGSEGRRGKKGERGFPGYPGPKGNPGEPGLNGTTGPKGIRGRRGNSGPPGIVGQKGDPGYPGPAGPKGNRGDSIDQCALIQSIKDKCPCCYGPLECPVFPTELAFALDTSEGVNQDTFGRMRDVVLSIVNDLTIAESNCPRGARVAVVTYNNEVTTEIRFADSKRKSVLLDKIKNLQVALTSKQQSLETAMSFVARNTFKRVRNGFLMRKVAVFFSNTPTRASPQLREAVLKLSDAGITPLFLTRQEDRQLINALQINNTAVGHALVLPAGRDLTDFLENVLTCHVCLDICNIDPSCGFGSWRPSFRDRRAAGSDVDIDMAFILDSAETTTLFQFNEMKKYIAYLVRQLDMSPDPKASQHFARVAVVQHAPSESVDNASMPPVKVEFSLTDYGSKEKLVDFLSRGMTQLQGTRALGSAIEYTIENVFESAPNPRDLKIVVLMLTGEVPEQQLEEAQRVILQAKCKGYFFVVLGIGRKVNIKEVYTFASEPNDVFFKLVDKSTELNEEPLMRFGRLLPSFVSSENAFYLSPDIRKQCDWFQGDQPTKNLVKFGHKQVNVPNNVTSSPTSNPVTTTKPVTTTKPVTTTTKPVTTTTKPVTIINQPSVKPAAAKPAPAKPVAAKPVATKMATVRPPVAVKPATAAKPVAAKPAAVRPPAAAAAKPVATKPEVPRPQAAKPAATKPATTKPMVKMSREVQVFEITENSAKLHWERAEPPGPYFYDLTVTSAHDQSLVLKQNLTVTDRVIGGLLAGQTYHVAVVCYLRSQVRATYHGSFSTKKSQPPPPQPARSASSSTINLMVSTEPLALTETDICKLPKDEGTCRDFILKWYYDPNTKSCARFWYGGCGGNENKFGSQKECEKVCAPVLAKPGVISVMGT

compound: c1cn2cc(-c3ccc4cn[nH]c4c3)nc(Nc3ccc(N4CCOCC4)cc3)c2n1 [entospletinib]; experiment: log2 fold change, soluble protein after heating vs DMSO (PISA); higher = thermal stabilisation; K562 cells, 10 uM, 30 min; active = over 0.2 and 3.5 SD of the protein, either way, in both replicates (recomputed)
Outline: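 K562 cells at 2×10^6 cells/mL were treated with 10 μM compound for 30 min. Aliquots were heated for 3 min across 48°C-58°C, pooled, and extracted in PBS with 0.5% NP-40 at 4°C; soluble protein was the supernatant after 21,000xg for 90 min. Soluble protein was quantified by TMTpro 16plex LC-MS/MS with channel sums equalised, and reported as log2 fold change in thermal stability against DMSO controls, with values from duplicates.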

log2 fold change, inactive:
COPS2 (UniProt P61201) -0.014, CSNK1A1L (UniProt Q8N752) -0.014, COQ5 (UniProt Q5HYK3) 0.074, COPS7A (UniProt Q9UBW8) 0.025, CRCP (UniProt O75575) 0.189, COX6A1 (UniProt P12074) 0.15, COX7A2 (UniProt P14406) 0.049, COMMD7 (UniProt Q86VX2) 0.022, CPSF2 (UniProt Q9P2I0) -0.052, CSDE1 isoform 4 (UniProt O75534) 0.172, CSNK1G1 (UniProt Q9HCP0) 0.134, CORO7 isoform 3 (UniProt P57737) -0.009, CORO1C isoform 3 (UniProt Q9ULV4) -0.074, COQ10B (UniProt Q9H8M1) 0.138, COQ3 (UniProt Q9NZJ6) -0.007, COPS7B (UniProt Q9H9Q2) 0.032, CREBBP (UniProt Q92793) -0.03, CROCCP2 (UniProt Q86T23) 0.007, COMMD6 isoform 2 (UniProt Q7Z4G1) -0.035, COX11 (UniProt Q9Y6N1) -0.033, CREM isoform 1 (UniProt Q03060) 0.081, COQ6 (UniProt Q9Y2Z9) 0, CRBN (UniProt Q96SW2) -0.009, CPNE1 (UniProt Q99829) 0.001, COL6A3 (UniProt P12111) 0.058, CPNE2 (UniProt Q96FN4) -0.288, COX7A2L (UniProt O14548) 0.033
